From patent US8114410B2, “Composition and methods for the inhibition of membrane fusion by paramyxoviruses” (priority 2001, dated 2012)
Some entries share one result that the patent states for a list of compounds.

System: NiV
Assay type: cell-based, Nipah virus

Compound: CC[C@H](C)[C@H](NC(=O)[C@H](Cc1ccc(O)cc1)NC(=O)[C@H](CC(=O)O)NC(=O)[C@H](CCCCN)NC(=O)[C@H](CO)NC(=O)[C@H](CCC(N)=O)NC(=O)[C@H](CCC(N)=O)NC(=O)[C@H](CC(C)C)NC(=O)[C@H](CO)NC(=O)[C@H](CCC(N)=O)NC(=O)[C@H](CC(N)=O)NC(=O)[C@H](CCSC)NC(=O)[C@H](CO)NC(=O)[C@H](CO)NC(=O)[C@@H](NC(=O)[C@H](CCC(N)=O)NC(=O)[C@H](CO)NC(=O)[C@H](CO)NC(=O)[C@@H](NC(=O)[C@H](CC(=O)O)NC(=O)[C@@H](NC(=O)[C@H](CCCCN)NC(=O)[C@H](CC(=O)O)NC(=O)[C@@H](NC(=O)[C@H](Cc1ccccc1)NC(=O)[C@@H](NC(=O)[C@@H]1CCCN1C(=O)[C@@H]1CCCN1)C(C)C)[C@@H](C)O)C(C)C)[C@@H](C)CC)[C@@H](C)CC)C(=O)N[C@@H](CCCCN)C(=O)N[C@@H](CCC(=O)O)C(=O)N[C@@H](C)C(=O)N[C@@H](CCC(N)=O)C(=O)N[C@@H](CCCNC(=N)N)C(=O)N[C@@H](CC(C)C)C(=O)N[C@@H](CC(C)C)C(=O)N[C@@H](CC(=O)O)C(=O)N[C@H](C(=O)N[C@H](C(=O)N[C@@H](CC(N)=O)C(=O)N1CCC[C@H]1C(=O)N[C@@H](CO)C(=O)N[C@@H](CC(C)C)C(=O)O)C(C)C)[C@@H](C)O [NiV FC1]
- Number of nuclei in NiV-induced syncytia relative to control untreated syncytia: less than 30%
